Data from PubChem BioAssay AID504467 (National Center for Advancing Translational Sciences (NCATS), 2011).
The campaign covered roughly 330,000 compounds. About 7,700 (2.3%) were called active. This list was built around the results that the source calls inconclusive (neither active nor inactive); the mix of calls is not that of the screen. Calls come from the whole dose curve; as a rule, active = well fitted inhibition curve with a large enough effect; inconclusive = small, poorly fitted or top-dose-only effect, or effect the other way; inactive = flat fitted curve, though single readings scatter. Potencies beside an inconclusive call are fits to weak or partial responses and may not hold up.

Test: qHTS screen for small molecules that inhibit ELG1-dependent DNA repair in human embryonic kidney (HEK293T) cells expressing luciferase-tagged ELG1; note: nearly all actives have a fitted effect of over 55% in size
Details: HEK293T ELG1-luciferase reporter, luminescence, 16 h, DNA damage induced by 5-fluorouridine; series mostly up to 46.1 µM
Method in brief: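 5-Fluorouridine DNA damage + compound/DMSO, 2,000 cells/well, 16 h, 37 °C/5% CO2. ONE-Glo, 30 min RT, luminescence. Readout = decrease in reporter signal.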
Potency is the fitted concentration of half-maximal effect.

| Compound | Potency |
| --- | --- |
| COCCCC1CCN(C(=O)c2cc(COc3cc(C)ccc3C)on2)CC1 | inconclusive: 10.3 µM [activator, partial curve] |
| CCc1nn(C(CC)C(=O)NCc2cccc(OC)c2)c(=O)c2cc3occc3n12 (stereo not drawn) | inactive |
| CO/N=C/C(C#N)=C/c1cc(C(=O)c2ccccc2)cn1C | inactive |
| NS(=O)(=O)c1ccc(NC(=S)NC(=O)C2CCCCC2)cc1 | inactive |
| Cc1ccc(F)cc1CNC(=O)C1CCC(=O)N(C2CC2)C1 (stereo not drawn) | inconclusive: 20.6 µM [activator, single point] |
| CCOC(=O)C1=C(OCc2ccc(Cl)cc2)C2C=C(C)C=CC2N=C1 (stereo not drawn) | active: 16.4 µM |
| Cc1ccc(SC[C@H](C)CN2CC[C@H](C)CCC2=O)cc1 | inactive |
| CC(C)(C)NC(=O)CSc1nc2cccnc2n1C1CCCCC1 | inactive |
| COC(=O)c1ccc(Oc2nc(Nc3ccc(C)c(C)c3)nc(N(C)C)n2)cc1 | active: 20.6 µM |
| COc1ccccc1NC(=O)c1cc2cc(Br)ccc2oc1=N | inactive |
| Cn1c(=O)cc(OCC(=O)NCc2cccnc2)c2ccccc21 | inconclusive: 20.6 µM [activator, single point] |
| COc1ccc(N=C2SC(CC(=O)Nc3ccc(F)cc3)C(=O)N2Cc2ccco2)cc1 (stereo not drawn) | inconclusive: 23.1 µM [inhibitor, single point] |
| Cn1c2ccccc2c2cc(/C=N/NC(=O)c3ccccc3F)ccc21 | active: 23.1 µM |
| Fc1ccccc1-c1nc(-c2cnccc2C(F)(F)F)no1 | inconclusive: 23.1 µM [inhibitor, partial curve, poor fit] |
| O=C(O)CC1(CC(=O)NCc2ccncc2)CCCCC1 | inconclusive: 6.51 µM [inhibitor, single point] |
| CCC(=O)Nc1sc(Cc2ccccc2)c(C)c1C(N)=O | inactive |
| CCOC(=O)C1=C(C)NC(=S)NC1c1ccc(OCC(=O)N2CCCCCC2)cc1 (stereo not drawn) | inconclusive: 14.6 µM [inhibitor, partial curve, poor fit] |
| COCCN(C(=O)c1ccc(OC2CCN(S(=O)(=O)N(C)C)CC2)cc1)C(C)C | inactive |
| Cc1ccc(C(=O)NC(=C(Cl)Cl)S(=O)(=O)c2ccccc2)cc1 | inconclusive: 29.1 µM [inhibitor, single point] |
| COc1ccc(OC)c(CNC(=O)CCSCc2ccc(F)cc2Cl)c1 | inconclusive: 29.1 µM [inhibitor, single point] |
| COCCN1C(=O)C(=O)/C(=C(/O)c2ccc(S(=O)(=O)N3CCCCC3)cc2)C1c1ccc(OC)c(OC)c1 (stereo not drawn) | inactive |
| COc1cc(OC)c2c(-c3ccccc3)cc(=O)oc2c1C(CC(=O)N1CCN(c2ccccc2)CC1)c1ccc(N(C)C)cc1 (stereo not drawn) | inconclusive: 16.4 µM [inhibitor, partial curve, poor fit] |

| Compound | Potency |
| --- | --- |
| CC(C)c1nnc(NC(=O)c2cccc(NC(=O)C(F)(F)F)c2)s1 | inconclusive: 10.3 µM [activator, partial curve] |
| COCCn1c(=O)[nH]c2cc(C(=O)N3CCN(c4cc(C)ccc4C)CC3)ccc2c1=O | inconclusive: 23.1 µM [inhibitor, partial curve] |
| Cc1[nH]n(-c2ccccc2)c(=O)c1/C=N\NC(=O)C1COc2ccccc2O1 (stereo not drawn) | inconclusive: 16.4 µM [activator, single point] |
| Cc1ccc(NC(=O)c2ncn(CC(=O)NCc3nc4ccccc4[nH]3)n2)cc1C | inconclusive: 18.3 µM [activator, partial curve] |
| O=C(c1ccc(Cl)c(Cl)c1)N1CCC(=O)N(C(COCc2cccc(Cl)c2)Cc2ccccc2)CC1 (stereo not drawn) | inconclusive: 29.1 µM [inhibitor, partial curve, poor fit] |
| Cc1ccc(C)c(S(=O)(=O)N2CCN(C(=O)CSc3ccccc3F)CC2)c1 | inconclusive: 29.1 µM [inhibitor, single point] |
| O=C(c1cc2ccccc2o1)N1CCN(S(=O)(=O)c2ccc(Cl)s2)CC1 | active: 16.4 µM |
| COc1ccccc1NCC(=O)N/N=C(\C)c1cccs1 | inconclusive: 23.1 µM [activator, single point] |
| Cc1cc(OCC(=O)NC(Cc2ccc(Cl)cc2)C(=O)O)c2c(C)c(C)c(=O)oc2c1 (stereo not drawn) | inconclusive: 0.231 µM [activator, single point] |
| Fc1cccc(Cl)c1CNCc1cccnc1 | inactive |
| C/C(CC(=O)Nc1cccnc1)=N\NC(=O)C(=O)NC(C)C | inconclusive: 1.3 µM [inhibitor, partial curve, poor fit] |
| Cn1cc(CNC(=O)c2cc(COc3ccc4c(c3)CCCC4)on2)cn1 | inactive |
| Cc1cc(Cl)ccc1OCC(=O)NNC(=O)C1CCN(c2ncnc3sc(C)c(C)c23)CC1 | inconclusive: 23.1 µM [inhibitor, single point] |
| COc1ccc(C2=CC(c3sccc3C)n3nnnc3N2)cc1 (stereo not drawn) | inconclusive: 18.4 µM [activator, partial curve] |
| COc1cc(OC)cc(-c2c(-c3cccs3)c3cc(-c4ccc(OC)nc4)ccc3n2C)c1 | inconclusive: 0.73 µM [inhibitor, full curve, poor fit] |
| O=C(NC1CCCCC1)C1COc2ccccc2O1 (stereo not drawn) | inconclusive: 20.6 µM [activator, single point] |
| Cc1nnc(SCC(=O)N2CCOCC2)[nH]c1=O | inconclusive: 16.4 µM [activator, partial curve, poor fit] |
| COc1ccc(C2=NN(C(=O)c3ccccc3C(=O)O)C(c3ccccc3O)C2)cc1 (stereo not drawn) | inconclusive: 23.1 µM [activator, partial curve] |
| Cn1c(=O)c2c(ncn2CC(=O)OCC(=O)NC2CCCc3ccccc32)n(C)c1=O (stereo not drawn) | inconclusive: 5.17 µM [activator, full curve, poor fit] |
| O=C1CCC/C=C\C[C@@H](CC(=O)N(CCO)Cc2ccccc2)C(=O)N[C@H](Cc2c[nH]c3ccccc23)CO1 | inconclusive: 29.1 µM [inhibitor, single point] |
| Cc1ccc(-c2cc(N)n(-c3ccc(C)cc3)n2)cc1 | inconclusive: 23.1 µM [activator, partial curve] |

Among those listed so far, 8 have fluorine.

| Compound | Potency |
| --- | --- |
| Cc1ccc(F)cc1CNC(=O)C1CCC(=O)N(C2CC2)C1 (stereo not drawn) | inconclusive: 20.6 µM [activator, single point] |
| COc1ccc(N=C2SC(CC(=O)Nc3ccc(F)cc3)C(=O)N2Cc2ccco2)cc1 (stereo not drawn) | inconclusive: 23.1 µM [inhibitor, single point] |
| Cn1c2ccccc2c2cc(/C=N/NC(=O)c3ccccc3F)ccc21 | active: 23.1 µM |
| Fc1ccccc1-c1nc(-c2cnccc2C(F)(F)F)no1 | inconclusive: 23.1 µM [inhibitor, partial curve, poor fit] |
| COc1ccc(OC)c(CNC(=O)CCSCc2ccc(F)cc2Cl)c1 | inconclusive: 29.1 µM [inhibitor, single point] |
| CC(C)c1nnc(NC(=O)c2cccc(NC(=O)C(F)(F)F)c2)s1 | inconclusive: 10.3 µM [activator, partial curve] |
| Cc1ccc(C)c(S(=O)(=O)N2CCN(C(=O)CSc3ccccc3F)CC2)c1 | inconclusive: 29.1 µM [inhibitor, single point] |
| Fc1cccc(Cl)c1CNCc1cccnc1 | inactive |
